In PMC7276988, “Cryo-EM Structure of the Fork Protection Complex Bound to CMG at a Replication Fork” (Molecular Cell, 2020):
Results are given in words; binding and its absence hold for the method and conditions named. Some results given as binding are weak or reduced against the parent protein; the word gives no strength.

Chains of the proteins cited; added tags and fusions are not shown. Lines headed by an entry give the natural chain unless they say otherwise; changes in a name come on top.
UniProt P29469: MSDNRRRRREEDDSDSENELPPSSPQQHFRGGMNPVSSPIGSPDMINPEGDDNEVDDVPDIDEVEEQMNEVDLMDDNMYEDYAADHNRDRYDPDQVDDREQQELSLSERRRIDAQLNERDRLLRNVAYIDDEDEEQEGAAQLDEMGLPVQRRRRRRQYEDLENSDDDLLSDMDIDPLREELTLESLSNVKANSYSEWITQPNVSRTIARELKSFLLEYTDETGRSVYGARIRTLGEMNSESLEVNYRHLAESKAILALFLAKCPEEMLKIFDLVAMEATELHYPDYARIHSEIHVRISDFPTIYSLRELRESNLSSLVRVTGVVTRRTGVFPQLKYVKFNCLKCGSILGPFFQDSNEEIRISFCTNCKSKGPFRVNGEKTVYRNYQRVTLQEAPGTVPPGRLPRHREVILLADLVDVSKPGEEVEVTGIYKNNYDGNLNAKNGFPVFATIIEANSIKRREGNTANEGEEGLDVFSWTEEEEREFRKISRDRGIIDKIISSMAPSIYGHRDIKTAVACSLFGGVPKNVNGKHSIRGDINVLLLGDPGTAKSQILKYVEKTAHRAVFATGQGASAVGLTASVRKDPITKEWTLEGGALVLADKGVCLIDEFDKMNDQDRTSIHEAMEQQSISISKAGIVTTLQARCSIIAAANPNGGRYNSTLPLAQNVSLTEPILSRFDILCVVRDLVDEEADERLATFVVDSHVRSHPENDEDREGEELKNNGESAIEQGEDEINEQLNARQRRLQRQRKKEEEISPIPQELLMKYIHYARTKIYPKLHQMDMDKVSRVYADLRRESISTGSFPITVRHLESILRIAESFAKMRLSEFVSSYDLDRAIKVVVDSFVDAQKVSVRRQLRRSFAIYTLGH
UniProt Q04659: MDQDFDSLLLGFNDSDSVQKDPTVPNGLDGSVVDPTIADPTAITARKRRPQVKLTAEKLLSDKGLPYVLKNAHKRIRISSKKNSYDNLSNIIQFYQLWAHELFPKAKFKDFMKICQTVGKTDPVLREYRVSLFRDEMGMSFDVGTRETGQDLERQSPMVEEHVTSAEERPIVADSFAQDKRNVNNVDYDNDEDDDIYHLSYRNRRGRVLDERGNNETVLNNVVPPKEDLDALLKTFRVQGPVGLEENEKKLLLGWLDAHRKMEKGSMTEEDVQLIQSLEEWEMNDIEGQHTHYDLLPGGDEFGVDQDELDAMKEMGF

Experiments:
[1] = molecular target: T1, Cdc45-MCM-GINS (CMG) helicase (S. cerevisiae, UniProt P29469 1-868; P24279 1-971; P30665 1-933; P29496 1-775; P53091 1-1017; P38132 …); experiment: co-sedimentation; 10-30% glycerol gradient without cross-linker; 0.5 μM CMG with 1.5 molar excess of fork DNA, Csm3/Tof1 (or mutant), Ctf4 and Mrc1; 500 μM AMP-PNP, 3 mM Mg(OAc)2, 150 mM NaOAc, pH 7.5; 200,000g, 4°C, 2 h; silver-stained SDS-PAGE of fractions; both purified
T1 construct: Mcm2, S. cerevisiae, subunit of MCM in CMG; Mcm3, S. cerevisiae, subunit of MCM in CMG; Mcm4, S. cerevisiae, subunit of MCM in CMG; Mcm5, S. cerevisiae, subunit of MCM in CMG; Mcm6, S. cerevisiae, subunit of MCM in CMG; Mcm7, S. cerevisiae, subunit of MCM in CMG; Cdc45, S. cerevisiae, subunit of CMG; Psf1, S. cerevisiae, subunit of GINS in CMG; Psf2, S. cerevisiae, subunit of GINS in CMG; Psf3, …

[2] = molecular target: T1, Cdc45-MCM-GINS (CMG) helicase; experiment: cryo-EM structure; complex of all 15 proteins co-overexpressed in S. cerevisiae, co-purified (anti-FLAG, calmodulin), glycerol gradient fixation with glutaraldehyde
[3] = molecular target: T1, Cdc45-MCM-GINS (CMG) helicase; experiment: cryo-EM structure; co-expressed, co-purified complex, cross-linker omitted from the glycerol gradient; streptavidin-blocked fork DNA added
[4] = molecular target: T1, Cdc45-MCM-GINS (CMG) helicase; experiment: cryo-EM structure; reconstituted from purified CMG, fork DNA, Csm3/Tof1, Ctf4, Mrc1 with AMP-PNP; glycerol gradient fixation (glutaraldehyde and BS3); both purified

binding [1]: binds
binding [2]: binds
binding [3]: binds
binding [4]: binds
Substance: Csm3/Tof1 heterodimer (from UniProt Q04659 1-317; P53840 1-1238) (complex)
